Values quoted from earlier work, collected in paper PMC5225183, “Fingerprinting of neurotoxic compounds using a mouse embryonic stem cell dual luminescence reporter assay” (Archives of Toxicology, 2016).
Where two headings read alike, the source gives them in different places. Marks after values point to notes of the source that are not given here.

How the values were obtained:
[1] = Table S1, three classes; ref per compound in the footnotes of Table S1; cited from earlier work
[2] = ref Zimmer et al. ([2014]), cited from earlier work

CCCCc1oc2ccccc2c1C(=O)c1cc(I)c(OCCN(CC)CC)c(I)c1 [Amiodarone]
class based on clinical evidence for neurotoxicity [1]: Possibly (developmental)
Concentration in humans [2]: 2.3^k µM
Concentration in humans ([2]; listed as amiodarone): 2 to 3 µM
